# Measurements: paper PMC11381337
# The chains behind the UniProt entries cited, without tags or fusion partners. Where a name states a change or a piece, a line headed by the entry shows the natural chain unless it says otherwise.
# UniProt Q22618: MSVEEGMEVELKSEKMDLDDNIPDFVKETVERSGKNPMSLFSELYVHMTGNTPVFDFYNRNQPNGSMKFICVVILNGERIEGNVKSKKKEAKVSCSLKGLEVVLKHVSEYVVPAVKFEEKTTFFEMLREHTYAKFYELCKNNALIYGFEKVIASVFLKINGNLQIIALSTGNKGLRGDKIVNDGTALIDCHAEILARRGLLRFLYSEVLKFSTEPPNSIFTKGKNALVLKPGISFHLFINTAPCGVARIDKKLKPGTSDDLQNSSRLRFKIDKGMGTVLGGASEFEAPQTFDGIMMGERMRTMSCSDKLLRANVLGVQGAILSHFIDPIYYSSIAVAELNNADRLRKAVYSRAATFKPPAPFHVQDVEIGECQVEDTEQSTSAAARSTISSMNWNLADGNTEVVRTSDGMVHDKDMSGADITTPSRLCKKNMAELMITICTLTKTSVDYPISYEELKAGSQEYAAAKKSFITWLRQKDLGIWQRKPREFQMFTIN
# UniProt Q9N5V3: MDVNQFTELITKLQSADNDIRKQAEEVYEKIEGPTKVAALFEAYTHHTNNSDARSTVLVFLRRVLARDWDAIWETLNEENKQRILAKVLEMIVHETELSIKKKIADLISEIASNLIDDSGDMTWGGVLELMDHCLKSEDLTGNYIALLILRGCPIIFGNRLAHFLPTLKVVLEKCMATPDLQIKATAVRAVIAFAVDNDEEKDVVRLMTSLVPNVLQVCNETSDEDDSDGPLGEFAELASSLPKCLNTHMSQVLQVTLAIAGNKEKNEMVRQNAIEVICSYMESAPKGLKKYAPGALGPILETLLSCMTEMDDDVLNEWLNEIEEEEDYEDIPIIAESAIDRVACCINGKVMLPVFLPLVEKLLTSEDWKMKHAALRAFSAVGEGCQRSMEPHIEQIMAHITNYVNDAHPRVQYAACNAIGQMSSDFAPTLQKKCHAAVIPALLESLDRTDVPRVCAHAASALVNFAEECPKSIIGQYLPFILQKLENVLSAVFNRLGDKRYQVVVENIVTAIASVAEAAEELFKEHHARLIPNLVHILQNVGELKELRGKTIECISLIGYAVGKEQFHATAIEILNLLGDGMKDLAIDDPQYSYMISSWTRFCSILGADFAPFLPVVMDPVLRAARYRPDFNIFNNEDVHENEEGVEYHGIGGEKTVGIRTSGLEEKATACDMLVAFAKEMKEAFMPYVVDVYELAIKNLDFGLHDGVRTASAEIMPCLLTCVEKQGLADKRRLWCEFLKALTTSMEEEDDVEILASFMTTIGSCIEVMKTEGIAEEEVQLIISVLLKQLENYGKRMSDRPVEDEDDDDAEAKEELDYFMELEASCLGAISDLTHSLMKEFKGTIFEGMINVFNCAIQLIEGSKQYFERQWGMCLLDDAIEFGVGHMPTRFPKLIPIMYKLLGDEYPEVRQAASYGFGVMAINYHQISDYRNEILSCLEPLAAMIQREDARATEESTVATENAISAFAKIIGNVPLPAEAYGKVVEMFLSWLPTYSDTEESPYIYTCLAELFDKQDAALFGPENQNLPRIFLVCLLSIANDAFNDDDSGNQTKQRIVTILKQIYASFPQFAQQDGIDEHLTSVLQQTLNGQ
# B1: ADBP-1 (ADR-2 Binding Protein 1) (protein, UniProt G5EDW1 1-217)
# chain: MSFASGCTPVSFDKLFEVSSGDKVSRENWGMIARPEPQHDSLKRRNTTSSIAKKKAKMTRGDEQITDETARKAATQLLDQIQDTPGRISLNFETPEAASVCPIPTSLNQIVNTKWTVNQLQEGQLTMLLAQDANKFKSLGVKNIKKGSVETQILPRQMDVKEIVEKLKKQDNDSDQFVGYAAAVANVLRRCDAETAQKITQAITATIEKEAPSIVNC
# B2: ADR-1 (protein, UniProt Q9U3D6 1-964)
# chain: MDQNPNYNFGYGQAYGSGTDHTSDSTNNYNWASQWSQPESAASLATHTFPQYVSQQQQQQQQQAQQQAQNTYAAMNPISTFMQQQQRAQTFPQKKYGQQGGAPKPSAIRNNNFGAFGGGHALSQEWVQPMSQNQMGGPQGNRFFNNQKGGPFNQNKPNWRQNKPKGPAAPKKFDSTGKSPAMLLHELFKDVSEEYTEVEGVPKKYCCTLKVNGRTFQMESVNKKAAKQKCSELVVRDLRPDVHVTPFEEGVAAKAAAPVKKEIDAASGNGQNNKRNLLQADAISNQPTPKKVSAVKKAKLQLTPVESALSLLDLMQKIIAESAEKYSPVFEASEVPKDPEIPEVEVKKEEVDTNGENVANEKKSGWRKNETMHNVTLKFVEQNKQYTKMGPSRGVLKDMVIREALRDLFNVSHADITTVARRHASNRLGHDTTILQCLNTICSILNCTLTIECEPAEDRPLGIGRAYFMAKCTIIDHNENDLKFEVKSSSLASKAMAKDWVAQETLKNYFAIDPSSCVKTDAVSSQGPCALLHAMLNKQTKQKCKIAYEFKDNVPPVAGQATTTFYCECVIDETDRYIGVGRSKKLAKSEAAMQALKKLFKIDYDPAGNYPLALTSRAMTESKVSPLCRHIAEFCKREYHQMTEYYQIPPSNLFAAFLLVNAQEEKRVLAMGSSIQYIVEPDTLSGANGTSLLHLDAIILARRAMLKAFIHELSTVDSECSIFEKKEEGKAALKPNLRLVLYSNYSPPCIHAVDDAATKKLSYVTPTNLTCVPDDVLTYEQIKETKSLRVHCTADKLFKWNTLGIQGALLSNVLHPIFIDNIFFGSEAPVSDESLSYALQGRLGPNENEREIIVESMPVQMRMHMGISHLWHRGVDSVETLDYNTGRTSKGSPSRVCKAEIFEAYRKLNGVDQAVVNYAKAKEMASEYQYEKKVFYEKLEAAGLGKWQTKPAELVDSFTLAAFD
# B3: IMA-3 (protein, UniProt Q19969 1-514)
# chain: MSSNRQAYYKNNAKEQIGKEKRNEEVVSIRKDKREEAISKRRNINTQIEDDSETSTTPPGPFDANLLRLTVAAAQSSDPAEQLTAVQQARKMLSTDRNPPIDDLIGSGILPVLVQCLSSTDPNLQFEAAWALTNIASGTSEQTQAVVNAGAVPLFLQLLSCGNLNVCEQSVWALGNIIGDGPHFRDYCLELGILQPLLQFINPEIPIGFLRNVTWVIVNLCRCKDPAPSPAVVRTILPALSLLIHHQDTNILIDTVWALSYLTDGGNEHIQMVIEAQVVTHLVPLLGHVDVKVQTAALRAVGNIVTGTDEQTQLVLDSGVLRFMPGLLAHYKEKINKEAVWFVSNITAGNQQQVQDVFDAGIMPMIIHLLDRGDFPTQKEAAWAISNVTISGRPNQVEQMVKLGVLRPFCAMLSCTDSQIIQVVLDGINNILKMAGEAAEQVTSEIEECGGLDKIENLQNHENEDIYKLAFEIIDNFFSSDDETGNVEGAQSSAFGGDVPPVPDAPNGGWNFGK
# Biological target: ADR-2 (C. elegans (endogenous in wild-type worms)) (UniProt Q22618)
# Assay: affinity purification with mass spectrometry; 5 mg lysate of mixed-stage wild-type worms in IP buffer (50 mM HEPES pH 7.4, 70 mM K-acetate, 5 mM Mg-acetate, 0.05% NP-40, 10% glycerol) on anti-rabbit IgG Dynabeads coated with custom ADR-2 antibody, 1 hour in the cold room; washed with 0.5 M NaCl, 160 mM Tris-HCl pH 7.5; on-bead digestion and LC-MS/MS
row,binding,Molecule
1,binds,IMB-3 (from UniProt Q9N5V3)
2,binds,B1
3,binds,B2
4,binds,B3

# These are yes or no findings as the source states them, for the method shown. In cells and extracts the contact can be indirect. These calls come from enrichment with a bait or labelling near it, and not all partners need be listed.
